PubChem BioAssay AID493027 (The Scripps Research Institute Molecular Screening Center, 2011)
Out of some 2,000 compounds screened, about 45 (2%) were called active.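 Rule for the calls: active = inhibition above the screen-wide mean inhibition plus 3 SD (cut at about 44% in these data); inactive = the rest.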 The list shows a part of the results.

Amino acid sequences for entries named in this document (tags omitted). A change or cut given only in a name is not applied to a line headed by its entry.
UniProt O60240: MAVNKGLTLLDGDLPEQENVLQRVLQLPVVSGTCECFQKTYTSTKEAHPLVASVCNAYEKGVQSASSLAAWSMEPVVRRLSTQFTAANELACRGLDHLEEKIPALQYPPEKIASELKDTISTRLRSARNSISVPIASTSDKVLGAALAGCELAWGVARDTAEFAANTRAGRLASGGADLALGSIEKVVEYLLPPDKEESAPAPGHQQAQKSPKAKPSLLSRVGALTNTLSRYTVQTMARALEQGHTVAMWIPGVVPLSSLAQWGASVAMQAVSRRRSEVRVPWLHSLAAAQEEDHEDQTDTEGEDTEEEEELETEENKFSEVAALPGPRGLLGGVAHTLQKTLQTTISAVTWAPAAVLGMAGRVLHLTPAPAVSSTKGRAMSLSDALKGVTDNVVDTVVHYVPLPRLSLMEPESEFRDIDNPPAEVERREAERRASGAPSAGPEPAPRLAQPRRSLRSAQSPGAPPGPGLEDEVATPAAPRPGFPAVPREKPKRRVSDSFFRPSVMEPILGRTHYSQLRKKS
UniProt Q8WTS1: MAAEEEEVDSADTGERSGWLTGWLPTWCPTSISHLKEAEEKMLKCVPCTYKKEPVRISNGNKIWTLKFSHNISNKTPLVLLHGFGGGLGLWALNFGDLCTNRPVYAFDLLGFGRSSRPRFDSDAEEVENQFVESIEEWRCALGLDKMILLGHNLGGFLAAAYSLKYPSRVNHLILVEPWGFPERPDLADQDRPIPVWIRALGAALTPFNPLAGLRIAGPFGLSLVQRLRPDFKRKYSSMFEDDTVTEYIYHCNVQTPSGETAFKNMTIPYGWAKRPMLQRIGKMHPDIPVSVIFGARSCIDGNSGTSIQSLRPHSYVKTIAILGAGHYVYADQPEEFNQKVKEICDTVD

Molecular target: Perilipin-1 (Homo sapiens) + 1-acylglycerol-3-phosphate O-acyltransferase ABHD5 (Homo sapiens) (UniProt O60240+Q8WTS1)
Assay: ABHD5-PLIN1 interaction inhibitors, pilot screen, cell lysate, split luciferase complementation, luminescence, NIH validation set (AID 493027);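 note: 0% = DMSO wells with the 100% control not disclosed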
Details: split G. princeps luciferase complementation, 4 h; at 7.9 µM, active compounds read high

| SMILES | inhibition |
| --- | --- |
| COc1cc(CNCc2ccc(OC)c(OC)c2OC)cc(OC)c1 | inactive: -5.93% |
| COc1ccc2c(c1OC)C(=O)OC2C1c2c(cc3c(c2OC)OCO3)CCN1C (stereo not drawn) | inactive: -9.43% |
| CCCN1C[C@H](CSC)C[C@@H]2c3cccc4[nH]cc(c34)C[C@H]21 | inactive: 3.13% |
| COc1ccc(CCNC(=O)c2ccc(Cl)cc2)cc1OC | inactive: -5.87% |
| CCC(=O)Oc1ccc(/C(CC)=C(\CC)c2ccc(OC(=O)CC)cc2)cc1 | inactive: 8.03% |
| COc1ccc(C2N3CC4(C)CN2CC(C)(C3)C4)cc1OC (stereo not drawn) | inactive: -2.9% |
| Cc1ccc2c(c1)c1c3n2CCCNC3CCC1 (stereo not drawn) | inactive: 0.07% |
| O=C(NCc1ccc(N2CCCC2=O)cc1)c1cccc(Cl)c1 | inactive: -3.89% |
| CC(=O)N(CCC(Cc1ccccc1)c1ccco1)Cc1ccco1 (stereo not drawn) | inactive: 40.8% |
| C[C@]12CC[C@@H]3c4ccc(O)cc4CC[C@H]3[C@@H]1CC[C@@H]2OC(=O)CCC(=O)O | inactive: 9.67% |
| CN(C)CCCN1c2ccccc2Sc2ccccc21 | inactive: -3.33% |
| Cn1c(SCC(=O)c2ccccc2)nnc1-c1ccncc1 | inactive: -5.1% |
| COc1ccc(N2C(=O)[C@@H]3[C@H](C2=O)[C@H]2c4ccccc4C=CN2[C@@H]3C(C)=O)cc1 | inactive: -4.08% |
| Cc1cc(C(C)(C)C)c(O)c(C)c1CC1=NCCN1 | inactive: -2.1% |
| Nc1c(C(=O)c2ccccc2)oc2ccccc12 | inactive: 4.15% |
| CC(CCc1ccccc1)NCC(O)c1ccc(O)c(C(N)=O)c1 (stereo not drawn) | inactive: -4.1% |
| Cc1ccc(Cl)c(OCCCN(C)Cc2ccccc2)c1 | inactive: -5.48% |
| CCc1cc2c(=O)c(-c3ccc4c(c3)OCCO4)coc2c(CN2CCCCC2C)c1O (stereo not drawn) | inactive: 19.6% |
| Cc1[nH]nc(-c2ccc(O)cc2O)c1Oc1ccccc1 | inactive: 14.4% |
| C[C@]12CCC(=O)C=C1[C@H](O)C[C@@H]1[C@@H]2[C@@H](O)C[C@@]2(C)[C@H]1CC[C@]2(O)C(=O)CO | inactive: -8.52% |
| Cc1oncc1C(=O)Nc1ccc(C(F)(F)F)cc1 | inactive: -4.11% |
| COc1ccc(C(Cl)=C(c2ccc(OC)cc2)c2ccc(OC)cc2)cc1 | inactive: -7.66% |
| O=C(O)c1cccnc1Nc1cccc(C(F)(F)F)c1 | inactive: 3.88% |
| O=C(NCc1ccccc1Cl)NC(=O)c1ccccc1 | inactive: -2.42% |
| CC[N+](C)(C)Cc1ccccc1Br | inactive: -3.45% |

| SMILES | inhibition |
| --- | --- |
| CC1(C)Oc2ccc(C#N)cc2[C@@H](N2CCCC2=O)[C@@H]1O | inactive: 0.57% |
| CCN1C(=O)C(CC(=O)Nc2ccc(OC)cc2)N(CCc2ccc(F)cc2)C1=S (stereo not drawn) | inactive: 9.51% |
| OCCC1CN(Cc2nc(-c3ccccc3)cs2)CCN1Cc1ccc(F)cc1 (stereo not drawn) | inactive: -1.6% |
| c1ccc2c(c1)CCOC2CNCCCN1CCCCC1 (stereo not drawn) | inactive: -15.9% |
| N/C(Cc1ccc(Cl)cc1Cl)=N\OC(=O)c1ccc(Br)o1 | inactive: -0.38% |
| CN(Cc1c(C(=O)N(C)Cc2ccccc2)nc2ccccn12)CC1Cc2ccccc2O1 (stereo not drawn) | inactive: 4.92% |
| Nc1nc(Cl)nc2c1ncn2[C@H]1C[C@H](O)[C@@H](CO)O1 | inactive: -3.81% |
| O=C(O)[C@@H](O)c1ccccc1 | inactive: -1.6% |
| C/C(CCc1oc2ccc(Cl)cc2c1-c1ccc(C)o1)=N\O | inactive: 26.2% |
| CC(=O)c1c(N)nc2n(c1=O)CCCCC2 | inactive: -11.6% |
| CC/C(=C1/C(=O)CC(C)(C)C(C(=O)OC)C1=O)N1CCCC1 (stereo not drawn) | inactive: -0.15% |
| CC(=O)C1=C(O)C(=O)N(CC(=O)O)C1c1ccccc1Cl (stereo not drawn) | inactive: -3.01% |
| N=C(N)c1ccc(OCCCCCOc2ccc(C(=N)N)cc2)cc1 | inactive: 1.09% |
| CCN(CC)CCN1C(=O)C(=O)/C(=C(/O)c2c(C)[nH]c(C(=O)OC)c2C)C1c1cccnc1 (stereo not drawn) | inactive: 0.26% |
| COc1ccccc1C(=O)Nc1cc2cc(Br)ccc2oc1=O | inactive: -9.88% |
| CCCCC(=O)O[C@H]1CC[C@H]2[C@@H]3CCc4cc(O)ccc4[C@H]3CC[C@]12C | inactive: -15.8% |
| Fc1ccc(C(c2ccc(F)cc2)N2CCN(C/C=C/c3ccccc3)CC2)cc1 | inactive: -7.35% |
| CCOC(=O)C(=O)Nc1ccc(Oc2ccccc2)cc1 | inactive: -8.34% |
| CCCc1cc(=O)[nH]c(=S)[nH]1 | inactive: -5.68% |
| COC(=O)CN1C(=S)N(c2ccc(F)cc2)C(=O)C1CC(=O)Nc1ccccc1 (stereo not drawn) | inactive: 3.26% |
| COc1ccc(CCN(C)CCCC(C#N)(c2ccc(OC)c(OC)c2)C(C)C)cc1OC (stereo not drawn) | inactive: -8.8% |
| Nc1cccc2nc3ccccc3cc12 | inactive: -10.2% |
| O=C(NC1CC1)C1CCN(C2CCN(C(=O)Cc3ccc(F)cc3)CC2)CC1 | inactive: -12.1% |
| N/C(=N\OC(=O)c1cccc(Br)c1)c1ccncc1 | inactive: -2.18% |
| COc1ccc(-c2coc3c(CN4CCOCC4)c(O)ccc3c2=O)cc1 | inactive: -9.05% |

3 structures already listed, arranged by molar mass, low to high.

| SMILES | inhibition |
| --- | --- |
| CC1(C)Oc2ccc(C#N)cc2[C@@H](N2CCCC2=O)[C@@H]1O | inactive: 0.57% |
| c1ccc2c(c1)CCOC2CNCCCN1CCCCC1 (stereo not drawn) | inactive: -15.9% |
| CCN(CC)CCN1C(=O)C(=O)/C(=C(/O)c2c(C)[nH]c(C(=O)OC)c2C)C1c1cccnc1 (stereo not drawn) | inactive: 0.26% |

(further entries)

| SMILES | inhibition |
| --- | --- |
| CC(=O)N1CCN(c2ccc(NC(=O)/C=C/c3ccccc3)cc2)CC1 | inactive: 5.73% |
| O=C(Nc1cccc(C(=O)O)c1)/C(=C\c1ccccc1)NC(=O)c1ccccc1 | inactive: -1.42% |
| C[C@]12CCC(=O)C=C1CC[C@@H]1[C@@H]2[C@@H](O)C[C@@]2(C)[C@H]1CC[C@]2(O)C(=O)CO | inactive: -6.79% |
| CC(C)N(Cc1nccn1C)C(=O)CC1C(=O)NCCN1Cc1ccccc1C(F)(F)F (stereo not drawn) | inactive: -11% |
| CNCCCC1c2ccccc2C=Cc2ccccc21 | inactive: -2.42% |
| Cc1ccsc1/C=N\NC(=O)c1ccc2c(c1)OCO2 | inactive: -1.88% |
| O=C(O)CC(O)C(=O)O (stereo not drawn) | inactive: -5.9% |
| Cc1cc(=O)oc(C)c1C(=O)NCCC(C)C | inactive: -5.42% |
| CC(=O)N1N=C(c2cccs2)CC1c1ccc(C)o1 (stereo not drawn) | inactive: -8.72% |
| O=C(Cc1c[nH]c2ccccc12)OCCOC(=O)Cc1c[nH]c2ccccc12 | inactive: 19.4% |
| Cn1c(=O)c2nc3ccccc3nc2n(C)c1=O | inactive: -8.96% |
| O=P(O)(O)CP(=O)(O)O | inactive: -4.16% |
| COc1ccc(/C=N\NC(=O)CCc2c(C)n[nH]c2C)c(OC)c1OC | inactive: -12% |
| O=C(CCCC(=O)OCC1CCCO1)OCC1CCCO1 (stereo not drawn) | inactive: -11.4% |
| CC(C(=O)O)c1ccc(-c2ccccc2)c(F)c1 (stereo not drawn) | inactive: -2.81% |
| C=CCOc1ccc(C(=O)CC)cc1OC | inactive: -1.94% |
| Cn1c(=O)[nH]c2nnc(-c3ccc(Cl)c(Cl)c3)nc2c1=O | inactive: 5.13% |
| CN(C)C(=O)C(CCN1CCC(O)(c2ccc(Cl)cc2)CC1)(c1ccccc1)c1ccccc1 | inactive: -4.14% |
| CSCCC(NC(=O)OC(C)(C)C)C(=O)Oc1ccc2c(=O)c(-c3ccc4c(c3)OCCO4)coc2c1 (stereo not drawn) | active: 67.4% |
| COc1cc2c(cc1OC)C(c1cc(OC)c(OC)c(OC)c1)NCC2 (stereo not drawn) | inactive: -1.43% |
| COc1ccc2[nH]c3c(=O)n(/N=C/[C@H]4C(C)C=C(C)CC4C)c(=O)[nH]c3c2c1 (stereo partly drawn) | inactive: 23.9% |
| Oc1c(Cl)cc(Cl)c(Cl)c1Cc1c(O)c(Cl)cc(Cl)c1Cl | inactive: 0.61% |
| COc1cccc(-n2c(C)c3c(OC)cccc(=O)c3c2C)c1 | inactive: 12% |
| CCCCC[C@H](O)/C=C/C1=C(CCCCCCC(=O)O)C(=O)CC1 | inactive: 22.3% |
| COc1cccc(OC)c1C(=O)NCCSC1CCCCC1 | inactive: 4.52% |

| SMILES | inhibition |
| --- | --- |
| CNc1nc(Nc2ccccc2)nc(OCC(F)(F)F)n1 | inactive: -9.06% |
| COc1ccc(C(=O)/C=C2/c3ccccc3CC(C)(C)N2C)cc1 | inactive: 12% |
| O=C(CCC(=O)NCCO)NCCO | inactive: 7.42% |
| Oc1ccc(/C=C/c2cc(O)cc(O)c2)cc1 | inactive: 1.01% |
| COc1ccc(/C=C/C(=O)Nc2ccccc2C(=O)O)cc1OC | inactive: -6.48% |
| COC(=O)c1cc(-c2ccc(OC)c(OC)c2)on1 | inactive: -7.32% |
| CC(=O)N/C(=C/c1ccc2c(c1)OCO2)C(=O)NCCO | inactive: 1.37% |
| COC(=O)c1[nH]c(=O)c2ccccc2c1O | inactive: 0.41% |
| CCc1nc2ccccc2c(NC(=O)CN2CC(C)CC(C)C2)c1C (stereo not drawn) | inactive: -6.89% |
| CC(=O)c1ccc(CCCCCCCCCC(=O)O)s1 | inactive: -12.1% |
| COc1cc2c(cc1OC)/C(=C/c1ccc(Cl)cc1)C(=O)OC2 | inactive: 27.4% |
| C=C(C)Cn1c(NCCOC)nc2c1c(=O)[nH]c(=O)n2C | inactive: -5.11% |
| O=C(CCCCCCCC(=O)c1ccccc1)c1ccccc1 | inactive: -5.61% |
| Cc1cc(=O)[nH]c(=S)[nH]1 | inactive: 1.21% |
| Cc1ccc(Nc2ncccc2C(=O)O)cc1C | inactive: -1.57% |
| COc1ccccc1C(=O)Oc1ccc2c(c1)O/C(=C\c1ccncc1)C2=O | active: 45.6% |
| CN(C)CCOC(C)(c1ccccc1)c1ccccn1 (stereo not drawn) | inactive: -12.1% |
| CN(C(=O)C(Cl)Cl)c1ccc(OC(=O)c2ccco2)cc1 | inactive: -2.19% |
| Cc1oc2c(CN3CCCC3)c(O)ccc2c(=O)c1-c1ccc(Cl)cc1 | inactive: -6.73% |
| COC(=O)c1cc(OC)c(OC)cc1NC(=O)CN1C(=O)c2ccccc2C1=O | inactive: -6.28% |
| Cc1ccc(S(=O)(=O)NC(C(=O)Oc2ccc3c(C(F)(F)F)cc(=O)oc3c2)c2ccccc2)cc1 (stereo not drawn) | inactive: -15.3% |
| CNC[C@H](O)c1ccc(O)c(O)c1 | inactive: -31.2% |
| C[N+]1(C2CCC3CCCC2C3O)CCCCC1 (stereo not drawn) | inactive: -12.9% |

Shown as tab-separated lines: entries from further up.
SMILES	inhibition
CCCCC[C@H](O)/C=C/C1=C(CCCCCCC(=O)O)C(=O)CC1	inactive: 22.3%
COc1cccc(OC)c1C(=O)NCCSC1CCCCC1	inactive: 4.52%
CNc1nc(Nc2ccccc2)nc(OCC(F)(F)F)n1	inactive: -9.06%
COc1ccc(C(=O)/C=C2/c3ccccc3CC(C)(C)N2C)cc1	inactive: 12%
O=C(CCC(=O)NCCO)NCCO	inactive: 7.42%
Oc1ccc(/C=C/c2cc(O)cc(O)c2)cc1	inactive: 1.01%
COc1ccc(/C=C/C(=O)Nc2ccccc2C(=O)O)cc1OC	inactive: -6.48%
COC(=O)c1cc(-c2ccc(OC)c(OC)c2)on1	inactive: -7.32%
CC(=O)N/C(=C/c1ccc2c(c1)OCO2)C(=O)NCCO	inactive: 1.37%
COC(=O)c1[nH]c(=O)c2ccccc2c1O	inactive: 0.41%
CCc1nc2ccccc2c(NC(=O)CN2CC(C)CC(C)C2)c1C (stereo not drawn)	inactive: -6.89%
CC(=O)c1ccc(CCCCCCCCCC(=O)O)s1	inactive: -12.1%
COc1cc2c(cc1OC)/C(=C/c1ccc(Cl)cc1)C(=O)OC2	inactive: 27.4%
C=C(C)Cn1c(NCCOC)nc2c1c(=O)[nH]c(=O)n2C	inactive: -5.11%
O=C(CCCCCCCC(=O)c1ccccc1)c1ccccc1	inactive: -5.61%
Cc1cc(=O)[nH]c(=S)[nH]1	inactive: 1.21%
Cc1ccc(Nc2ncccc2C(=O)O)cc1C	inactive: -1.57%
COc1ccccc1C(=O)Oc1ccc2c(c1)O/C(=C\c1ccncc1)C2=O	active: 45.6%
CN(C)CCOC(C)(c1ccccc1)c1ccccn1 (stereo not drawn)	inactive: -12.1%
CN(C(=O)C(Cl)Cl)c1ccc(OC(=O)c2ccco2)cc1	inactive: -2.19%
Cc1oc2c(CN3CCCC3)c(O)ccc2c(=O)c1-c1ccc(Cl)cc1	inactive: -6.73%
COC(=O)c1cc(OC)c(OC)cc1NC(=O)CN1C(=O)c2ccccc2C1=O	inactive: -6.28%
Cc1ccc(S(=O)(=O)NC(C(=O)Oc2ccc3c(C(F)(F)F)cc(=O)oc3c2)c2ccccc2)cc1 (stereo not drawn)	inactive: -15.3%
CNC[C@H](O)c1ccc(O)c(O)c1	inactive: -31.2%
C[N+]1(C2CCC3CCCC2C3O)CCCCC1 (stereo not drawn)	inactive: -12.9%
